# From the supplement of paper PMC8728848
# The other results are listed elsewhere or left out.
# Assays:
# Assay in all cases: glycan array binding signal (z-score within array); higher = stronger binding
# Conditions in all cases: glycan notation: IUPAC condensed, linker removed
# Gal(a1-3)Gal(b1-4)GlcNAc = target: Gal(a1-3)Gal(b1-4)GlcNAc
# In short: (§1)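 Columns mapping to the same glycan were averaged after glycan names were converted to IUPAC-condensed notation. The data come from 3228 arrays in the Consortium for Functional Glycomics database, limited to those with an available protein sequence. Binding is reported as a within-array Z-score averaged across arrays of one protein sequence and across linkers.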
# [1] = target: Gal(a1-3)Gal(b1-4)GlcNAc(b1-2)Man
# In short: as §1
# [2] = target: Gal(a1-3)Gal(b1-4)GlcNAc(b1-2)Man(a1-3)[Gal(a1-3)Gal(b1-4)GlcNAc(b1-2)Man(a1-6)]Man(b1-4)GlcNAc(b1-4)GlcNAc
# In short: as §1
# [3] = target: Gal(a1-3)Gal(b1-4)GlcNAc(b1-3)GalNAc
# In short: as §1
# [4] = target: Gal(a1-3)Gal(b1-4)GlcNAc(b1-6)GalNAc
# In short: as §1
# [5] = target: Gal(a1-3)Gal(b1-4)[Fuc(a1-3)]GlcNAc
# In short: as §1
# [6] = target: Gal(a1-3)Gal(b1-4)[Fuc(a1-3)]GlcNAc(b1-2)Man(a1-3)[Gal(a1-3)Gal(b1-4)[Fuc(a1-3)]GlcNAc(b1-2)Man(a1-6)]Man(b1-4)GlcNAc(b1-4)GlcNAc
# In short: as §1
# Gal(a1-3)GalNAc = target: Gal(a1-3)GalNAc
# In short: as §1
# [7] = target: Gal(a1-3)[Gal(a1-4)]Gal(b1-4)GlcNAc
# In short: as §1
# [8] = target: Gal(a1-4)Gal(b1-3)GlcNAc(b1-2)Man(a1-3)[Gal(a1-4)Gal(b1-3)GlcNAc(b1-2)Man(a1-6)]Man(b1-4)GlcNAc(b1-4)GlcNAc
# In short: as §1
# Gal(a1-4)Gal(b1-4)Glc = target: Gal(a1-4)Gal(b1-4)Glc
# In short: as §1
# Gal(a1-4)Gal(b1-4)GlcNAc = target: Gal(a1-4)Gal(b1-4)GlcNAc
# In short: as §1
# [9] = target: Gal(a1-4)Gal(b1-4)GlcNAc(b1-2)Man(a1-3)[Gal(a1-4)Gal(b1-4)GlcNAc(b1-2)Man(a1-6)]Man(b1-4)GlcNAc(b1-4)GlcNAc
# In short: as §1
# [10] = target: Gal(a1-4)Gal(b1-4)GlcNAc(b1-3)Gal(b1-4)Glc
# In short: as §1
# Gal(a1-4)GlcNAc = target: Gal(a1-4)GlcNAc
# In short: as §1
# Gal(a1-6)Glc = target: Gal(a1-6)Glc
# In short: as §1
# Gal(b1-2)Gal = target: Gal(b1-2)Gal
# In short: as §1
# Gal(b1-3)Gal = target: Gal(b1-3)Gal
# In short: as §1
# Gal(b1-3)Gal(b1-4)GlcNAc = target: Gal(b1-3)Gal(b1-4)GlcNAc
# In short: as §1
# Gal(b1-3)GalNAc = target: Gal(b1-3)GalNAc
# In short: as §1
# [11] = target: Gal(b1-3)GalNAc(a1-3)[Fuc(a1-2)]Gal(b1-4)Glc
# In short: as §1
# [12] = target: Gal(b1-3)GalNAc(a1-3)[Fuc(a1-2)]Gal(b1-4)GlcNAc
# In short: as §1
# Gal(b1-3)GalNAc(b1-3)Gal = target: Gal(b1-3)GalNAc(b1-3)Gal
# In short: as §1
# [13] = target: Gal(b1-3)GalNAc(b1-3)Gal(a1-4)Gal(b1-4)Glc
# In short: as §1
# [14] = target: Gal(b1-3)GalNAc(b1-4)Gal(b1-4)Glc
# In short: as §1
# [15] = target: Gal(b1-3)GalNAc(b1-4)[Neu5Ac(a2-3)]Gal(b1-4)Glc
# In short: as §1
# Gal(b1-3)GlcNAc = target: Gal(b1-3)GlcNAc
# In short: as §1
# [16] = target: Gal(b1-3)GlcNAc(a1-3)Gal(b1-4)GlcNAc
# In short: as §1
# [17] = target: Gal(b1-3)GlcNAc(a1-6)Gal(b1-4)GlcNAc
# In short: as §1
# Gal(b1-3)GlcNAc(b1-2)Man = target: Gal(b1-3)GlcNAc(b1-2)Man
# In short: as §1
# [18] = target: Gal(b1-3)GlcNAc(b1-2)Man(a1-3)[Gal(b1-3)GlcNAc(b1-2)Man(a1-6)]Man(b1-4)GlcNAc(b1-4)GlcNAc
# In short: as §1
# [19] = target: Gal(b1-3)GlcNAc(b1-2)Man(a1-3)[Gal(b1-3)GlcNAc(b1-2)Man(a1-6)]Man(b1-4)GlcNAc(b1-4)[Fuc(a1-6)]GlcNAc
# In short: as §1
# [20] = target: Gal(b1-3)GlcNAc(b1-2)Man(a1-3)[GlcNAc(b1-4)][Gal(b1-3)GlcNAc(b1-2)Man(a1-6)]Man(b1-4)GlcNAc(b1-4)GlcNAc
# In short: as §1
# [21] = target: Gal(b1-3)GlcNAc(b1-2)[Gal(b1-3)GlcNAc(b1-6)]Man(a1-6)[Gal(b1-3)GlcNAc(b1-2)Man(a1-3)]Man(b1-4)GlcNAc(b1-4)GlcNAc
# In short: as §1
# [22] = target: Gal(b1-3)GlcNAc(b1-3)Gal(b1-3)GlcNAc
# In short: as §1
# [23] = target: Gal(b1-3)GlcNAc(b1-3)Gal(b1-4)Glc
# In short: as §1
# [24] = target: Gal(b1-3)GlcNAc(b1-3)Gal(b1-4)GlcNAc
# In short: as §1
# [25] = target: Gal(b1-3)GlcNAc(b1-3)Gal(b1-4)GlcNAc(b1-2)Man(a1-3)[Gal(b1-3)GlcNAc(b1-3)Gal(b1-4)GlcNAc(b1-2)Man(a1-6)]Man(b1-4)GlcNAc(b1-4)GlcNAc
# In short: as §1
# [26] = target: Gal(b1-3)GlcNAc(b1-3)Gal(b1-4)GlcNAc(b1-2)[Gal(b1-3)GlcNAc(b1-3)Gal(b1-4)GlcNAc(b1-6)]Man(a1-6)[Gal(b1-3)GlcNAc(b1-3)Gal(b1-4)GlcNAc(b1-2)Man(a1-3)]Man(b1-4)GlcNAc(b1-4)[Fuc(a1-6)]GlcNAc
# In short: as §1
# [27] = target: Gal(b1-3)GlcNAc(b1-3)Gal(b1-4)GlcNAc(b1-3)Gal(b1-4)GlcNAc(b1-2)[Gal(b1-3)GlcNAc(b1-3)Gal(b1-4)GlcNAc(b1-3)Gal(b1-4)GlcNAc(b1-6)]Man(a1-6)[Gal(b1-3)GlcNAc(b1-3)Gal(b1-4)GlcNAc(b1-3)Gal(b1-4)GlcNAc(b1-2)Man(a1-3)]Man(b1-4)GlcNAc(b1-4)[Fuc(a1-6)]GlcNAc
# In short: as §1
# [28] = target: Gal(b1-3)GlcNAc(b1-3)Gal(b1-4)GlcNAc(b1-6)[Gal(b1-3)GlcNAc(b1-3)]Gal(b1-4)Glc
# In short: as §1
# [29] = target: Gal(b1-3)GlcNAc(b1-3)Gal(b1-4)[Fuc(a1-3)]GlcNAc
# In short: as §1
# [30] = target: Gal(b1-3)GlcNAc(b1-3)Gal(b1-4)[Fuc(a1-3)]GlcNAc(b1-6)[Gal(b1-3)GlcNAc(b1-3)]Gal(b1-4)Glc
# In short: as §1
# [31] = target: Gal(b1-3)GlcNAc(b1-3)GalNAc
# In short: as §1
# [32] = target: Gal(b1-3)GlcNAc(b1-6)Gal(b1-4)GlcNAc
# In short: as §1
binder,measurement,setting,value
"MtEccB1 (Mycobacterium tuberculosis H37Rv), O69734 (protein) MGLRLTTKVQVSGWRFLLRRLEHAIVRRDTRMFDDPLQFYSRSIALGIVVAVLILAGAALLAYFKPQGKLGGTSLFTDRATNQLYVLLSGQLHPVYNLTSARLVLGNPANPATVKSSELSKLPMGQTVGIPGAPYATPVSAGSTSIWTLCDTVARADSTSPVVQTAVIAMPLEIDASIDPLQSHEAVLVSYQGETWIVTTKGRHAIDLTDRALTSSMGIPVTARPTPISEGMFNALPDMGPWQLPPIPAAGAPNSLGLPDDLVIGSVFQIHTDKGPQYYVVLPDGIAQVNATTAAALRATQAHGLVAPPAMVPSLVVRIAERVYPSPLPDEPLKIVSRPQDPALCWSWQRSAGDQSPQSTVLSGRHLPISPSAMNMGIKQIHGTATVYLDGGKFVALQSPDPRYTESMYYIDPQGVRYGVPNAETAKSLGLSSPQNAPWEIVRLLVDGPVLSKDAALLEHDTLPADPSPRKVPAGASGAP",glycan array binding signal (z-score),Gal(a1-3)Gal(b1-4)GlcNAc,1.38
same,glycan array binding signal (z-score),[1],-0.967
same,glycan array binding signal (z-score),[2],-0.269
same,glycan array binding signal (z-score),[3],-0.935
same,glycan array binding signal (z-score),[4],-1.1
same,glycan array binding signal (z-score),[5],-0.497
same,glycan array binding signal (z-score),[6],2.03
same,glycan array binding signal (z-score),Gal(a1-3)GalNAc,-0.2
same,glycan array binding signal (z-score),[7],0.908
same,glycan array binding signal (z-score),[8],-1.76
same,glycan array binding signal (z-score),Gal(a1-4)Gal(b1-4)Glc,0.676
same,glycan array binding signal (z-score),Gal(a1-4)Gal(b1-4)GlcNAc,-0.116
same,glycan array binding signal (z-score),[9],0.041
same,glycan array binding signal (z-score),[10],-0.215
same,glycan array binding signal (z-score),Gal(a1-4)GlcNAc,-0.402
same,glycan array binding signal (z-score),Gal(a1-6)Glc,-0.349
same,glycan array binding signal (z-score),Gal(b1-2)Gal,-1.09
same,glycan array binding signal (z-score),Gal(b1-3)Gal,0.485
same,glycan array binding signal (z-score),Gal(b1-3)Gal(b1-4)GlcNAc,-0.055
same,glycan array binding signal (z-score),Gal(b1-3)GalNAc,-0.513
same,glycan array binding signal (z-score),[11],1.1
same,glycan array binding signal (z-score),[12],-0.412
same,glycan array binding signal (z-score),Gal(b1-3)GalNAc(b1-3)Gal,-0.796
same,glycan array binding signal (z-score),[13],-0.784
same,glycan array binding signal (z-score),[14],-0.659
same,glycan array binding signal (z-score),[15],-0.056
same,glycan array binding signal (z-score),Gal(b1-3)GlcNAc,-0.425
same,glycan array binding signal (z-score),[16],-0.927
same,glycan array binding signal (z-score),[17],-0.462
same,glycan array binding signal (z-score),Gal(b1-3)GlcNAc(b1-2)Man,0.257
same,glycan array binding signal (z-score),[18],2.58
same,glycan array binding signal (z-score),[19],-0.811
same,glycan array binding signal (z-score),[20],-0.871
same,glycan array binding signal (z-score),[21],0.372
same,glycan array binding signal (z-score),[22],0.213
same,glycan array binding signal (z-score),[23],1.07
same,glycan array binding signal (z-score),[24],-0.737
same,glycan array binding signal (z-score),[25],1.56
same,glycan array binding signal (z-score),[26],1.6
same,glycan array binding signal (z-score),[27],-1.22
same,glycan array binding signal (z-score),[28],-0.066
same,glycan array binding signal (z-score),[29],-0.15
same,glycan array binding signal (z-score),[30],0.926
same,glycan array binding signal (z-score),[31],-0.04
same,glycan array binding signal (z-score),[32],0.062

# Looked up one by one from the list above (three):
binder,measurement,setting,value
"MtEccB1 (Mycobacterium tuberculosis H37Rv), O69734 (protein) MGLRLTTKVQVSGWRFLLRRLEHAIVRRDTRMFDDPLQFYSRSIALGIVVAVLILAGAALLAYFKPQGKLGGTSLFTDRATNQLYVLLSGQLHPVYNLTSARLVLGNPANPATVKSSELSKLPMGQTVGIPGAPYATPVSAGSTSIWTLCDTVARADSTSPVVQTAVIAMPLEIDASIDPLQSHEAVLVSYQGETWIVTTKGRHAIDLTDRALTSSMGIPVTARPTPISEGMFNALPDMGPWQLPPIPAAGAPNSLGLPDDLVIGSVFQIHTDKGPQYYVVLPDGIAQVNATTAAALRATQAHGLVAPPAMVPSLVVRIAERVYPSPLPDEPLKIVSRPQDPALCWSWQRSAGDQSPQSTVLSGRHLPISPSAMNMGIKQIHGTATVYLDGGKFVALQSPDPRYTESMYYIDPQGVRYGVPNAETAKSLGLSSPQNAPWEIVRLLVDGPVLSKDAALLEHDTLPADPSPRKVPAGASGAP",glycan array binding signal (z-score),[6],2.03
same,glycan array binding signal (z-score),Gal(a1-4)Gal(b1-4)GlcNAc,-0.116
same,glycan array binding signal (z-score),[32],0.062
